Values of other authors as cited in patent US20170202787A1, “TREATMENT OF CHRONIC OBSTRUCTIVE PULMONARY DISEASE WITH NEBULIZED BETA 2-AGONIST OR COMBINED NEBULIZED BETA 2-AGONIST AND ANTICHOLINERGIC ADMINISTRATION” (Sunovion Respiratory Development, Inc., priority 2009, published 2017).
At least one structure is not confirmed: it was looked up by name or label, or the drawing left a doubt.

Tests used:
[1] = single administration, metered-dose aerosol, asthma; cited from earlier work
[2] = inhaled, asthma; cited from earlier work
[3] = delivered by a nebulizer, COPD patients; cited from earlier work

## C[N+]1(C)CCC(OC(=O)C(O)(c2ccccc2)C2CCCC2)C1 (stereo not shown) [glycopyrrolate, 3-[(cyclopentylhydroxyphenylacetyl)oxy]-1,1-dimethylpyrrolidinium]
[1]
  period of bronchodilation: 12 h
[2]
  duration of effective treatment: up to 12 hours
  duration of effective treatment that appears to be maximal: up to 8 hours
[3]
  duration of clinically meaningful improvement in therapeutic bronchodilation with acceptable side effects: up to 12 hours
